PubChem BioAssay AID1259425 – University of Nebraska Medical Center – 2018

- Aim: 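Seek colon cancer weak points whose silencing resembles KSR1 loss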 (primary screen)
- System: HCT116 human colon cancer cells
- Reagent: siRNA pool against human genes, 50 nM siRNA
- Read-out: 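After 50 nM siRNA pool, branched-DNA assay measures six marker transcripts per well, minus blank, normalised to the geometric mean of two housekeeping transcripts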
- Direction: BNIP3L mRNA: higher = more BNIP3L transcript after knockdown
In all, the deposit lists about 14,000 reagents; this is an unselected part. Some reagents were tested in more than one well and are listed for each. Not all columns of the deposit are shown. Reagent sequences are not shown. Not stated in the record: the time to read-out.

gene symbol	BNIP3L mRNA, set 1
LPCAT3 (lysophosphatidylcholine acyltransferase 3)	0.096
KCTD10 (potassium channel tetramerization domain containing 10)	0.288
UNC5B (unc-5 netrin receptor B)	0.0944
SELENOK (selenoprotein K)	0.0811
COL25A1 (collagen type XXV alpha 1 chain)	0.108
U2AF1 (U2 small nuclear RNA auxiliary factor 1)	0.115
CPLX1 (complexin 1)	0.114
EXD2 (exonuclease 3'-5' domain containing 2)	0.0923
DDX52 (DExD-box helicase 52)	0.0502
ZNF614 (zinc finger protein 614)	0.0473
HOXC10 (homeobox C10)	0.0952
FBXO5 (F-box protein 5)	0.0899
ANGPTL2 (angiopoietin like 2)	0.136
ZNF331 (zinc finger protein 331)	0.0973
CTAG2 (cancer/testis antigen 2)	0.095
GPBAR1 (G protein-coupled bile acid receptor 1)	0.189
THBS4 (thrombospondin 4)	0.246
TTTY5 (testis expressed transcript, Y-linked 5)	0.338
STC2 (stanniocalcin 2)	0.138
ACTRT3 (actin related protein T3)	0.13
RPS6KA3 (ribosomal protein S6 kinase A3)	0.143
GIGYF2 (GRB10 interacting GYF protein 2)	0.421
ZNF223 (zinc finger protein 223)	0.2
CR1 (complement C3b/C4b receptor 1 (Knops blood group))	0.0578
NCKAP1L (NCK associated protein 1 like)	0.068
KRT15 (keratin 15)	0.132
CSRP2 (cysteine and glycine rich protein 2)	0.138
ADAM15 (ADAM metallopeptidase domain 15)	0.102
NANS (N-acetylneuraminate synthase)	0.237
STAU1 (staufen double-stranded RNA binding protein 1)	0.215
GIPR (gastric inhibitory polypeptide receptor)	0.174
ENO3 (enolase 3)	0.107
PDCD2 (programmed cell death 2)	0.103
MMACHC (metabolism of cobalamin associated C)	0.2
COL8A1 (collagen type VIII alpha 1 chain)	0.0455
FGGY (FGGY carbohydrate kinase domain containing)	0.0956
SHOC2 (SHOC2 leucine rich repeat scaffold protein)	0.0829
CCR5 (C-C motif chemokine receptor 5)	0.0576
FBXW5 (F-box and WD repeat domain containing 5)	0.244
FYN (FYN proto-oncogene, Src family tyrosine kinase)	0.162
AP3M2 (adaptor related protein complex 3 subunit mu 2)	0.151
ABCB7 (ATP binding cassette subfamily B member 7)	0.067
PLK3 (polo like kinase 3)	0.102
APH1A (aph-1A gamma-secretase subunit)	0.119
KCNMA1 (potassium calcium-activated channel subfamily M alpha 1)	0.251
OLAH (oleoyl-ACP hydrolase)	0.316
NECAB1 (N-terminal EF-hand calcium binding protein 1)	0.105
IFRD1 (interferon related developmental regulator 1)	0.115
IL36RN (interleukin 36 receptor antagonist)	0.0666
ZNF234 (zinc finger protein 234)	0.105
ELP5 (elongator acetyltransferase complex subunit 5)	0.147
STX11 (syntaxin 11)	0.103
ADAM32 (ADAM metallopeptidase domain 32)	0.0988
MARCKS (myristoylated alanine rich protein kinase C substrate)	0.13
MBD1 (methyl-CpG binding domain protein 1)	0.0734
CTSG (cathepsin G)	0.0593
TESK2 (testis associated actin remodelling kinase 2)	0.162
OR1F2P (olfactory receptor family 1 subfamily F member 2 pseudogene)	0.149
RCC2 (regulator of chromosome condensation 2)	0.0543
NUDT1 (nudix hydrolase 1)	0.187
CHRNA3 (cholinergic receptor nicotinic alpha 3 subunit)	0.0428
SPG7 (SPG7 matrix AAA peptidase subunit, paraplegin)	0.0785
SPG7 (SPG7 matrix AAA peptidase subunit, paraplegin)	0.0776
SPG7 (SPG7 matrix AAA peptidase subunit, paraplegin)	0.0733

Single entries from the entries so far:
Under “BNIP3L mRNA, set 1”, CTAG2 (cancer/testis antigen 2) shows 0.095
For “BNIP3L mRNA, set 1”, OLAH (oleoyl-ACP hydrolase) shows 0.316
ENO3 (enolase 3), BNIP3L mRNA, set 1: 0.107
TESK2 (testis associated actin remodelling kinase 2), BNIP3L mRNA, set 1: 0.162
Under “BNIP3L mRNA, set 1”, MARCKS (myristoylated alanine rich protein kinase C substrate) has 0.13
Under “BNIP3L mRNA, set 1”, KCTD10 (potassium channel tetramerization domain containing 10) shows 0.288
